Assay results published in the supplement of paper PMC10849652.
The other results are listed elsewhere or left out. Residues, ends and D or L forms follow the SMILES beside them. *: point of attachment. Cbz = O=C(OCc1ccccc1)*

Sequences of proteins named here, by UniProt entry; tags and fusion partners are left off. A change or cut given only in a name is not applied to a line headed by its entry.
UniProt Q92564: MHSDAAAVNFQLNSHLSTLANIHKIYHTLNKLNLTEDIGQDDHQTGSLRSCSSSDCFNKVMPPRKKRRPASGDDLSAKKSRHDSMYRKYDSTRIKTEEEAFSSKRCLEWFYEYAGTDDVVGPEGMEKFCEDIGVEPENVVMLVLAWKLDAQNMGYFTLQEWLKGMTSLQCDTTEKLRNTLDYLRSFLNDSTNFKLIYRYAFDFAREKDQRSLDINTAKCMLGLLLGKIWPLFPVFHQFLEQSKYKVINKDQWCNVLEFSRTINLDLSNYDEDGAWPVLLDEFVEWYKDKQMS
UniProt Q16527: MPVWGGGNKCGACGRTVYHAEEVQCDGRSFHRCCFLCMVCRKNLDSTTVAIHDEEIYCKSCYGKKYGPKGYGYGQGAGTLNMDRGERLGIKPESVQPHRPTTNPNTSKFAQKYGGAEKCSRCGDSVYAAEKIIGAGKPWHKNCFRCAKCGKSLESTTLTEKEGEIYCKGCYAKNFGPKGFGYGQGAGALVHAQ
UniProt Q8N8Z6: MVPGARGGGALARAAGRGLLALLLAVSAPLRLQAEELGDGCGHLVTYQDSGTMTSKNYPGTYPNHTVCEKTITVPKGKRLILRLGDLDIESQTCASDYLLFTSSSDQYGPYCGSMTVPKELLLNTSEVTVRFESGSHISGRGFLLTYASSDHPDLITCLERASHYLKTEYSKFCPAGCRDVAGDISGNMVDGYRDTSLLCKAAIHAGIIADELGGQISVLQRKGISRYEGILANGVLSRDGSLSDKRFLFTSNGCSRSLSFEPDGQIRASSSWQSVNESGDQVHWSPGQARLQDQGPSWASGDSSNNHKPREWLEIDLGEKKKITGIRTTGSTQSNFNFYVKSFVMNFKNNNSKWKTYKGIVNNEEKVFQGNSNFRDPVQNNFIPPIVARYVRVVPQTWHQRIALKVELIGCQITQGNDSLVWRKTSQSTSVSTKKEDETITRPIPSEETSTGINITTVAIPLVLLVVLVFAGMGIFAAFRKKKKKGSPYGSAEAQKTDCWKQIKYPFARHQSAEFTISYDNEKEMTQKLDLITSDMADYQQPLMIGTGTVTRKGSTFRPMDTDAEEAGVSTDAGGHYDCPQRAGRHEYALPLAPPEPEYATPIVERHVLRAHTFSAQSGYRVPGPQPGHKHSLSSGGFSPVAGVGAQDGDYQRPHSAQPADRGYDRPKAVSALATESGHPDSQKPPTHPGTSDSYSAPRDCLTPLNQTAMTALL
UniProt Q2TBE0: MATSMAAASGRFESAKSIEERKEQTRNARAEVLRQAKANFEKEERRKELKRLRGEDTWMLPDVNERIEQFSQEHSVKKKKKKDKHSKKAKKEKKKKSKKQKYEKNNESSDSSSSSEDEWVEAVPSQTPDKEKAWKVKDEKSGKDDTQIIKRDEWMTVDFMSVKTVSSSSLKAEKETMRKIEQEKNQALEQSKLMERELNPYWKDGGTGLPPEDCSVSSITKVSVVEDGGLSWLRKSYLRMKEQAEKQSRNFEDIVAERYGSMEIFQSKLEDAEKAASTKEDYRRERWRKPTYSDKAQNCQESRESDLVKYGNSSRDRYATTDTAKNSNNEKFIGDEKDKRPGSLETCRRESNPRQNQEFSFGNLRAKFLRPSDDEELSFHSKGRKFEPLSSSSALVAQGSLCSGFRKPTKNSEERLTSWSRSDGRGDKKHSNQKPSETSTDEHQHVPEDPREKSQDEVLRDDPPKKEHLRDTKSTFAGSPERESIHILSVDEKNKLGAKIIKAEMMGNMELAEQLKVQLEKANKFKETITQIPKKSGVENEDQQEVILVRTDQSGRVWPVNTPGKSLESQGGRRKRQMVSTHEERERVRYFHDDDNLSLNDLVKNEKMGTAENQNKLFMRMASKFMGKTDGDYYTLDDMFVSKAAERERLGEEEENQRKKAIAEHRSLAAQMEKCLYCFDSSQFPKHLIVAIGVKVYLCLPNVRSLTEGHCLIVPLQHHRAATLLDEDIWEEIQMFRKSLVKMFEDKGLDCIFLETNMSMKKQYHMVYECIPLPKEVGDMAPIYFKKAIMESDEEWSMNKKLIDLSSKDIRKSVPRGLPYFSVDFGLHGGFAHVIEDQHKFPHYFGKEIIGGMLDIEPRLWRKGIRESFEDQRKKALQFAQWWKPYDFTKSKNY
UniProt Q9BTE7: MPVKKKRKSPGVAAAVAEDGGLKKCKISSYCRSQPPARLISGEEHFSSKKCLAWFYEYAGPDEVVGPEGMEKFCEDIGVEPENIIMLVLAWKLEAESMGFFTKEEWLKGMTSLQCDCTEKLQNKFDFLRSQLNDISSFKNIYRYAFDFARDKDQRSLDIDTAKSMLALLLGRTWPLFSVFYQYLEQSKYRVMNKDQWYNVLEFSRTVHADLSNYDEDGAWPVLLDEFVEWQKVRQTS
UniProt Q14999: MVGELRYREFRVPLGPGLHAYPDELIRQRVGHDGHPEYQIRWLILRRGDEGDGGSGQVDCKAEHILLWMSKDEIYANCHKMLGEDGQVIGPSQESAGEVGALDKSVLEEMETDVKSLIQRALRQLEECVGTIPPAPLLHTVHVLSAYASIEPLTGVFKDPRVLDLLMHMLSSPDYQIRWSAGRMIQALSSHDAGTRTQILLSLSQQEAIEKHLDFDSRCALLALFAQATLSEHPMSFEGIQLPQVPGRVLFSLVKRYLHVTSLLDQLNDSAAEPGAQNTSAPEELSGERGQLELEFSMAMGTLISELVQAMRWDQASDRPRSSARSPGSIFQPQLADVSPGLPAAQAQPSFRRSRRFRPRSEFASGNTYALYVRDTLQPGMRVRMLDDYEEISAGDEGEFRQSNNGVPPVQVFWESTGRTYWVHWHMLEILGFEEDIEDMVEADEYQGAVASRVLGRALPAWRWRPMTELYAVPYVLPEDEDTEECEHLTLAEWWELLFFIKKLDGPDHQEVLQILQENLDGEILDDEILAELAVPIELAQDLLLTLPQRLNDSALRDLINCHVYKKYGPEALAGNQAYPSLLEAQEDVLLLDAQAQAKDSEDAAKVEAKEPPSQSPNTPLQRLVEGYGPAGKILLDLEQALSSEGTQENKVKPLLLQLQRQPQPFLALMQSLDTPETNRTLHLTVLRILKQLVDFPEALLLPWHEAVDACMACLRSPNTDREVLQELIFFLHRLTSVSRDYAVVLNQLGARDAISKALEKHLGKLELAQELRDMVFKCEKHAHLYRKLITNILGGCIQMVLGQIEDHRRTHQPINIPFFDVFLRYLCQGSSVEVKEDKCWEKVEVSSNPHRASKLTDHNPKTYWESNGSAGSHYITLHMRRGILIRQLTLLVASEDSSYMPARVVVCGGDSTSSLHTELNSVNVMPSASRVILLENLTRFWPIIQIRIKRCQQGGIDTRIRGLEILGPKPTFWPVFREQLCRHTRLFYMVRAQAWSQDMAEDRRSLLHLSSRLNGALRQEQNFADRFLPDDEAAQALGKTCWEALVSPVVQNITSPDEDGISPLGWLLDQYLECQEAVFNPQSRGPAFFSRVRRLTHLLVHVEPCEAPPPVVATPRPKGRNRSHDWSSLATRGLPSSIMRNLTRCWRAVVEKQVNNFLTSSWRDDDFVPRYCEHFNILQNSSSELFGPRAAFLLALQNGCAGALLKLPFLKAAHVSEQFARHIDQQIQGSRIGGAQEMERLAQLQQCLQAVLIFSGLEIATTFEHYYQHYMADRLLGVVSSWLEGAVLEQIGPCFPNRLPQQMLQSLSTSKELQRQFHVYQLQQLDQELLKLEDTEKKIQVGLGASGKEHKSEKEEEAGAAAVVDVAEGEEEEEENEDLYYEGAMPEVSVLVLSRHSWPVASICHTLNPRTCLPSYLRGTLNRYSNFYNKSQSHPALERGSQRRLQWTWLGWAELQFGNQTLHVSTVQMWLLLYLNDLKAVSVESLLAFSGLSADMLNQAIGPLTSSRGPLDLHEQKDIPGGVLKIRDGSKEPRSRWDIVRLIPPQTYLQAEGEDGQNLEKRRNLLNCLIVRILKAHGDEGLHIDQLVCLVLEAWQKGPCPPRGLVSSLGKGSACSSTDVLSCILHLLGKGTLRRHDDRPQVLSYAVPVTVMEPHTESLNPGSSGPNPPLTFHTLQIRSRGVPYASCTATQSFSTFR
UniProt Q53TN4: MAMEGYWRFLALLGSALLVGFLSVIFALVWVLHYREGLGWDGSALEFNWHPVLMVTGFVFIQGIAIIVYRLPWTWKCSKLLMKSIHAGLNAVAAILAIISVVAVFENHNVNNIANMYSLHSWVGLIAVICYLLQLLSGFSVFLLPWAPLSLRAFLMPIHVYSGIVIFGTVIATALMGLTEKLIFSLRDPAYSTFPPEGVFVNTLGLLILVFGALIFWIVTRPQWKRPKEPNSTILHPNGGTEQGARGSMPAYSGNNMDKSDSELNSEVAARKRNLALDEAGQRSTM
UniProt Q15438: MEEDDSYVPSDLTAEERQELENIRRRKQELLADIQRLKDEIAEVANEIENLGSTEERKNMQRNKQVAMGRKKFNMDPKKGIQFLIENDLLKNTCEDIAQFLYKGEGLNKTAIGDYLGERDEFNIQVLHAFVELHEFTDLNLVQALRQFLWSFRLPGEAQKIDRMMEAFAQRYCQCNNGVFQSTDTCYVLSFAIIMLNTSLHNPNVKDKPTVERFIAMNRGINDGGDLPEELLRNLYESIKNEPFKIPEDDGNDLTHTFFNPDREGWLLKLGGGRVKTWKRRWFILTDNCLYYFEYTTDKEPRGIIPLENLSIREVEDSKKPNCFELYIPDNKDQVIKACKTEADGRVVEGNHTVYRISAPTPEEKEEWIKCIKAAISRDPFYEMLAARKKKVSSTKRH
UniProt Q5H9S7: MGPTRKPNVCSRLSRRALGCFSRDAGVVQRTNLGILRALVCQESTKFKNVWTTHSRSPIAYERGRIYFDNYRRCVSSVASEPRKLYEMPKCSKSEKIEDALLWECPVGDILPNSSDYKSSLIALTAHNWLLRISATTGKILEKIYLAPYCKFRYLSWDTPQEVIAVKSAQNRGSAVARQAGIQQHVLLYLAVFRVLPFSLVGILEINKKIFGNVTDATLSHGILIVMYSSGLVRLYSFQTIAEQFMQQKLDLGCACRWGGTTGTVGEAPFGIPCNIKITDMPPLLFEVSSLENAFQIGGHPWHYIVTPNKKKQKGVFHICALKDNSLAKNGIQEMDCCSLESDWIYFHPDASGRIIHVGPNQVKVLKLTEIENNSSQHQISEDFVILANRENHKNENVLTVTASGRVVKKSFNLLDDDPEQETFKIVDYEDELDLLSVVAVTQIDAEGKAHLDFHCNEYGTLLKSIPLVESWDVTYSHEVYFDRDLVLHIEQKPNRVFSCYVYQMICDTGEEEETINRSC
UniProt O95196: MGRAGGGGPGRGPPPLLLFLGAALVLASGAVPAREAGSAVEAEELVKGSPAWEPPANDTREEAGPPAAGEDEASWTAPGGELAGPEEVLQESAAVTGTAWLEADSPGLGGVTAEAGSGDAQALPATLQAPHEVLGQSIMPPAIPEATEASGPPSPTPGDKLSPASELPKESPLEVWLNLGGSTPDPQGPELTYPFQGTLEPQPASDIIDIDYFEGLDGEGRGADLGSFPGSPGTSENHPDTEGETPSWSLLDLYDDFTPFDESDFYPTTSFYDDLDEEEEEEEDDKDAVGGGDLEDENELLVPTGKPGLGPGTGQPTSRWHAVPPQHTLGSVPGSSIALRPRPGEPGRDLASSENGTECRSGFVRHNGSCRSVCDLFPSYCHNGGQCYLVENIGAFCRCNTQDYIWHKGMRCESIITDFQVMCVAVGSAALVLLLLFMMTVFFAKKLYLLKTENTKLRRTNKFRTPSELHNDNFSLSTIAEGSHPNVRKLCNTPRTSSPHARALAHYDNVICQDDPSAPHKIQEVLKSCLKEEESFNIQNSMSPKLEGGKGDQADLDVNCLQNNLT
UniProt O95476: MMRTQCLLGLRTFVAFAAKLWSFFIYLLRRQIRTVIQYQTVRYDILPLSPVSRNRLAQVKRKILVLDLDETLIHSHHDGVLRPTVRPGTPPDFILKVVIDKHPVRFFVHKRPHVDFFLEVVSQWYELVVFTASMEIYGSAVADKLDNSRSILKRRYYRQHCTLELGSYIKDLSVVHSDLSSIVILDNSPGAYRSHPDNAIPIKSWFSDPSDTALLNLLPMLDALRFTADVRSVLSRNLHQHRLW
UniProt P00167, whole entry, looked up: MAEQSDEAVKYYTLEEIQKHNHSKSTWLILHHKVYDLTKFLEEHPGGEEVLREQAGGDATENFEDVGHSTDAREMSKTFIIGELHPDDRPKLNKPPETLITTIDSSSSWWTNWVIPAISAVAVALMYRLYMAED
UniProt Q9UIK4: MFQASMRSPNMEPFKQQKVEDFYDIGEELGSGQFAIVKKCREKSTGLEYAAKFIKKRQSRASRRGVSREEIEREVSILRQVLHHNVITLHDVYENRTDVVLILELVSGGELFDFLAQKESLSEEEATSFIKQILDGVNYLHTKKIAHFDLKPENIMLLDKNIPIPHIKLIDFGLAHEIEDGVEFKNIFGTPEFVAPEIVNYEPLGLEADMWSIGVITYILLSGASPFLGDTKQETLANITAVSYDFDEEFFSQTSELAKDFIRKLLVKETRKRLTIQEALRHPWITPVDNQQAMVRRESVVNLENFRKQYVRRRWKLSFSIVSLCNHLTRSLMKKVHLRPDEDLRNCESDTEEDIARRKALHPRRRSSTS

Key:
Experiment in all cases: log2 fold change, soluble protein after heating vs DMSO (PISA); higher = thermal stabilisation; K562 cells, 10 uM, 30 min; active = over 0.2 and 3.5 SD of the protein, either way, in both replicates (recomputed)
IRAK-1-4 Inhibitor I = compound: C1COCCN1CCN2C3=CC=CC=C3N=C2NC(=O)C4=CC(=CC=C4)[N+](=O)[O-] [IRAK-1-4 Inhibitor I]
In short: (§1)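 Soluble protein was defined as the supernatant after 21,000xg for 90 min. It came from K562 cells at 2×10^6 cells/mL given 10 μM compound for 30 min, heated in aliquots for 3 min across 48°C-58°C, pooled, and extracted in PBS with 0.5% NP-40 at 4°C, and was quantified by TMTpro 16plex LC-MS/MS with equalised channel sums. Thermal stability against control samples, from duplicates, is reported as log2 fold change.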

[1] = compound: CC(=O)c1cnc2ccc(-c3cc(Cl)c(O)c(Cl)c3)nc2c1N[C@H]1CC[C@H](CN(C)C)CC1
In short: as §1

[2] = compound: CC(C)(O)CC(=O)NCCn1ccc2ncnc(Nc3ccc(Oc4cccc(C(F)(F)F)c4)c(Cl)c3)c21
In short: as §1

pinometostat = compound: CC(C)N(C[C@H]1O[C@@H](n2cnc3c(N)ncnc32)[C@H](O)[C@@H]1O)[C@H]1C[C@@H](CCc2nc3cc(C(C)(C)C)ccc3[nH]2)C1 [pinometostat]
In short: as §1

[3] = compound: CC1=C(C2=C(C=C1)C(=O)C3=CC=CC=C3N2CCCN)C
In short: as §1

[4] = compound: CC1=C(C=C(C=C1)NC(=O)C2=CC(=CC=C2)C(C)(C)C#N)NC3=CC4=C(C=C3)N=CN(C4=O)C
In short: as §1

[5] = compound: CC1=NC(=CC=C1)C2=C(N=C(N2)C(C)(C)C)C3=CC4=NC=CN=C4C=C3
In short: as §1

Nexturastat A = compound: CCCCN(Cc1ccc(C(=O)NO)cc1)C(=O)Nc1ccccc1 [Nexturastat A]
In short: as §1

vemurafenib = compound: CCCS(=O)(=O)Nc1ccc(F)c(C(=O)c2c[nH]c3ncc(-c4ccc(Cl)cc4)cc23)c1F [vemurafenib]
In short: as §1

[6] = compound: CCCc1cc(C)[nH]c(=O)c1CNC(=O)c1cc(-c2ccnc(N3CCN(C)CC3)c2)cc2c1cnn2C(C)C
In short: as §1

[7] = compound: CC1=CC=C(C=C1)SC2=C3C=C(SC3=CN=C2)C(=O)N
In short: as §1

[8] = compound: CCCS(=O)(=O)Nc1ccc(F)c(C(=O)c2c[nH]c3ncc(Cl)cc23)c1F
In short: as §1

ralimetinib = compound: CC(C)(C)Cn1c(N)nc2ccc(-c3[nH]c(C(C)(C)C)nc3-c3ccc(F)cc3)nc21 [ralimetinib]
In short: as §1

[9] = compound: CC(C)C[C@@H](C=O)NC(=O)[C@H](CC(C)C)NC(=O)[C@H](CC(C)C)NC(=O)OCc1ccccc1
In short: as §1

[10] = compound: CC1=C(C=C(C=C1)NC(=O)C2=CC(=CC=C2)N(C)C)NC(=O)C3=CC=C(C=C3)O
In short: as §1

[11] = compound: CC(C)C1=C2N=C(C=C(N2N=C1)NCC3=CC=CC=C3)NCCCCCCN
In short: as §1

givinostat = compound: CCN(CC)Cc1ccc2cc(COC(=O)Nc3ccc(C(=O)NO)cc3)ccc2c1 [givinostat]
In short: as §1

ibrutinib = compound: C=CC(=O)N1CCC[C@@H](n2nc(-c3ccc(Oc4ccccc4)cc3)c3c(N)ncnc32)C1 [ibrutinib]
In short: as §1

[12] = compound: CC1=C(C(CC(=O)N1)C2=CC=C(C=C2)C(F)(F)F)C(=O)NC3=C(C=C4C(=C3)C=NN4)F
In short: as §1

barasertib = compound: CCN(CCCOc1ccc2c(Nc3cc(CC(=O)Nc4cccc(F)c4)[nH]n3)ncnc2c1)CCOP(=O)(O)O [barasertib]
In short: as §1

Measured: log2 fold change

DCUN1D4 isoform 3 (UniProt Q92564)
inactive: IRAK-1-4 Inhibitor I -0.075 | [1] -0.088 | [2] -0.02 | pinometostat 0.127 | [3] -0.349 | [4] -0.058 | [5] 0.066 | Nexturastat A 0.083 | vemurafenib -0.016 | [6] 0.054

CWC22 (UniProt Q9HCG8)
inactive: IRAK-1-4 Inhibitor I -0.055 | pinometostat 0.164 | [7] 0.271 | [5] -0.308 | [8] 0.351

CSRP2 (UniProt Q16527)
inactive: [1] 0.015 | ralimetinib 0.146 | [9] -0.239 | [3] -0.006 | [4] -0.215 | [10] 0.041 | vemurafenib -0.004

DCBLD1 (UniProt Q8N8Z6)
inactive: [2] 0.248 | [7] -0.392 | Nexturastat A 0.156 | [8] 0.046

CWF19L2 (UniProt Q2TBE0)
inactive: IRAK-1-4 Inhibitor I 0.029 | [1] -0.075 | ralimetinib 0.014 | [11] 0.184 | [9] 0.02 | pinometostat 0.098 | [3] 0.106 | [4] -0.048 | [10] 0.046 | [7] 0.166 | [5] -0.038 | [8] -0.057 | givinostat 0.035

CTSF (UniProt Q9UBX1)
inactive: [2] 0.102 | [11] -0.735 | Nexturastat A -0.016 | givinostat -0.004

DCUN1D5 (UniProt Q9BTE7)
inactive: IRAK-1-4 Inhibitor I 0.099 | [1] 0.027 | ralimetinib 0.014 | [9] 0.094 | pinometostat -0.007 | [3] 0.038 | [10] 0.098 | [5] -0.039 | vemurafenib 0.098 | [6] -0.023

CST4 (UniProt P01036)
inactive: ibrutinib 0.177 | [12] -0.094 | [4] -0.013 | vemurafenib -0.061 | [6] -0.394 | barasertib 0.351

CTDSPL2 (UniProt Q05D32)
inactive: [1] -0.15 | [2] -0.251 | [12] -0.175 | Nexturastat A -0.052

CTBP1 (UniProt E7ESU7)
inactive: [11] -0.061 | givinostat 0.081

CYREN (UniProt Q9BWK5)
inactive: IRAK-1-4 Inhibitor I -0.111 | ralimetinib -0.12 | [11] 0.181 | [9] 0.055 | pinometostat -0.151 | [12] -0.075 | [10] 0.114 | [5] -0.012 | vemurafenib 0.108 | [6] -0.026 | givinostat -0.115

CUL7 isoform 2 (UniProt Q14999)
inactive: ralimetinib 0.264 | [2] -0.17 | [11] 0.034 | [9] 0.103 | [12] 0.023 | [3] 0.024 | [10] -0.125 | [7] -0.044 | Nexturastat A 0.084 | [8] 0.043 | givinostat 0.32

DCBLD2 isoform 2 (UniProt Q96PD2)
inactive: [1] -0.021

CTR9 (UniProt Q6PD62)
inactive: IRAK-1-4 Inhibitor I -0.115 | ralimetinib 0.154 | [2] -0.038 | [11] -0.546 | [9] 0.197 | pinometostat -0.039 | [4] -0.054 | [10] -0.154 | [7] -0.244 | [5] -0.101 | Nexturastat A 0.211 | [8] 0.259 | givinostat 0.22

CST6 (UniProt Q15828)
inactive: [2] 0.175 | [12] -0.991 | [3] 1.63 | [4] -0.301 | Nexturastat A 0.26 | [6] 0.077

DCAF12 (UniProt Q5T6F0)
inactive: [4] -0.136 | [6] 0.08

CTDP1 (UniProt Q9Y5B0)
inactive: IRAK-1-4 Inhibitor I -0.047 | [2] -0.108 | [11] -0.218 | pinometostat 0.049 | [12] 0.02 | [3] 0.122 | [4] -0.031 | [7] 0.071 | [5] -0.067 | Nexturastat A -0.02 | [8] 0.047 | [6] 0.035 | givinostat 0.149

CYBRD1 (UniProt Q53TN4)
inactive: IRAK-1-4 Inhibitor I -0.111 | [1] -0.058 | ralimetinib 0.104 | [11] -0.028 | [9] -0.233 | pinometostat 0.007 | [10] 0 | [7] -0.023 | [5] 0.018 | vemurafenib 0.002 | [8] -0.274 | [6] -0.053 | givinostat 0.059

CTNNBL1 (UniProt Q8WYA6)
inactive: ibrutinib 0.046 | [7] 0.185 | vemurafenib -0.02 | [8] -0.166 | barasertib 0.012

CYP2R1 (UniProt Q6VVX0)
inactive: ibrutinib 0.004 | [12] 0.038 | [3] 0.076 | barasertib -0.116

CTNNBIP1 (UniProt Q9NSA3)
inactive: [6] 0.015

DCP1B (UniProt Q8IZD4)
inactive: ibrutinib -0.052 | [3] 0.044 | barasertib -0.049

CTPS1 isoform 2 (UniProt P17812)
inactive: [1] -0.143 | [4] 0.208

CST1 (UniProt P01037)
inactive: ibrutinib 0.257 | [2] 0.038 | [12] -0.152 | [4] -0.029 | Nexturastat A -0.074 | vemurafenib 0.168 | [6] 0.052 | barasertib 0.345

CYTH1 (UniProt Q15438)
inactive: [1] -0.033 | [2] -0.03 | [3] -0.248 | [7] -0.096 | Nexturastat A 0.181 | vemurafenib 0.066 | [8] -0.059 | [6] 0

CTSS (UniProt P25774)
inactive: IRAK-1-4 Inhibitor I -0.023 | ralimetinib -0.026 | [9] 0.12 | pinometostat -0.001 | [3] 0.316 | [4] 0.032 | [10] -0.045 | [5] -0.068 | vemurafenib -0.053

DCAF17 (UniProt Q5H9S7)
inactive: [2] -0.338 | Nexturastat A 0.059 | vemurafenib 0.086

CSPG5 (UniProt O95196)
inactive: [2] -0.036 | [11] 0.314 | [4] -0.009 | [7] 0.14 | Nexturastat A -0.361 | [8] -0.133 | givinostat -0.072

DCAF4 (UniProt Q8WV16)
inactive: ralimetinib -0.026 | [2] -0.019 | [9] -0.042 | [4] 0.03 | [10] 0.072 | Nexturastat A -0.132 | [6] -0.061

CTDNEP1 (UniProt O95476)
inactive: [1] -0.159 | [11] 0.072 | [3] 0.064 | [4] -0.028 | vemurafenib -0.019 | givinostat -0.005

Fetched one by one from above, 3 records:
CYTH1 (UniProt Q15438)
inactive: [1] -0.033 | [2] -0.03 | [3] -0.248 | [7] -0.096 | Nexturastat A 0.181 | vemurafenib 0.066 | [8] -0.059 | [6] 0

CTDNEP1 (UniProt O95476)
inactive: [1] -0.159 | [11] 0.072 | [3] 0.064 | [4] -0.028 | vemurafenib -0.019 | givinostat -0.005

CTSS (UniProt P25774)
inactive: IRAK-1-4 Inhibitor I -0.023 | ralimetinib -0.026 | [9] 0.12 | pinometostat -0.001 | [3] 0.316 | [4] 0.032 | [10] -0.045 | [5] -0.068 | vemurafenib -0.053

(list continues)

DAPK1 isoform 3 (UniProt P53355)
inactive: ibrutinib -0.073 | ralimetinib -0.152 | [2] 0.088 | [9] -0.05 | [4] -0.021 | [10] 0.149 | [7] -0.104 | Nexturastat A 0.4 | [8] -0.203 | [6] -0.278 | barasertib -0.023

CTIF (UniProt O43310)
inactive: ralimetinib -0.268 | [2] -0.138 | [9] 0.061 | [3] -0.029 | [4] -0.071 | [10] -0.109 | Nexturastat A 0.043 | vemurafenib 0.327

CTNS isoform 2 (UniProt O60931)
inactive: [4] 0.084 | vemurafenib -0.117 | [6] -0.111

CYB5A (UniProt P00167)
inactive: ibrutinib 0.029 | [1] -0.069 | ralimetinib -0.073 | [2] -0.026 | [11] 0.015 | [9] 0.012 | [12] 0.013 | [4] -0.044 | [10] -0.067 | [7] -0.002 | Nexturastat A 0.031 | vemurafenib 0.077 | [8] -0.038 | [6] -0.026 | givinostat 0.045 | barasertib 0.036

CXorf40B (UniProt Q96DE9)
inactive: IRAK-1-4 Inhibitor I 0.012 | [1] -0.198 | ralimetinib 0.01 | [2] -0.093 | [9] -0.08 | pinometostat -0.067 | [10] -0.1 | [5] 0.065 | Nexturastat A 0.047

DBNDD1 isoform 3 (UniProt Q9H9R9)
inactive: [2] -0.036 | [11] -0.031 | [4] 0.206 | Nexturastat A 0.037 | givinostat 0.148

CTDSP1 (UniProt Q9GZU7)
inactive: ralimetinib -0.036 | [11] -0.207 | [9] 0.169 | [12] -0.072 | [3] -0.047 | [10] -0.174 | vemurafenib 0.003 | givinostat 0.037

DAPK2 isoform 2 (UniProt Q9UIK4)
inactive: IRAK-1-4 Inhibitor I 0.097 | pinometostat -0.122 | [4] -0.21 | [5] 0.009 | [6] -0.033

CXXC1 isoform 2 (UniProt Q9P0U4)
inactive: IRAK-1-4 Inhibitor I 0.055 | [1] -0.012 | pinometostat 0.041 | [3] 0.028 | [4] -0.096 | [7] 0.076 | [5] -0.005 | vemurafenib -0.077 | [8] 0.031
